Some of the results follow.
Target: T1, OsSMF1 (Oryza sativa, UniProt Q6ZLB0 1-436)
T1 sequence: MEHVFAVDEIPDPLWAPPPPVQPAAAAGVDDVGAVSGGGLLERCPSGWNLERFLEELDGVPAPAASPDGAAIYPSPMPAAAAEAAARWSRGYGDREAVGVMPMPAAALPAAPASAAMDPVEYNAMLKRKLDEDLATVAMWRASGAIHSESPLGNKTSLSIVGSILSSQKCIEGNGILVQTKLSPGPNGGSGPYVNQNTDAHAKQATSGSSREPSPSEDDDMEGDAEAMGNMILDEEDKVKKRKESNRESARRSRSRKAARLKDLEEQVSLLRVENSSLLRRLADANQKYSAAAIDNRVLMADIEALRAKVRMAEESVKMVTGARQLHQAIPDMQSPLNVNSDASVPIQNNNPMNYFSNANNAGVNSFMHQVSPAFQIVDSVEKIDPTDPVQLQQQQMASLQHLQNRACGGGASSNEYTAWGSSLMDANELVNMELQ
Assay: protein-binding microarray (RPBM); PBS, 2% BSA, 51.3 ng/ul salmon testes DNA, 50 uM zinc acetate, 200 nM TF, 25 C, 1 h; high values mean tight binding
Details: protein: recombinant; tags: N-terminal polyhistidine and DsRed monomer fusion (pET32a); chain copies: 2; label: CyDye5-dUTP incorporated in the synthesized complementary strand; 3' TTTTT single-stranded linker to array surface; dsDNA, one strand shown
In short: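 Transcription factors were each fused at the N-terminus to a polyhistidine tag plus DsRed and expressed in E. coli BL21-CodonPlus before Ni–NTA purification. Binding to a double-stranded custom Agilent array was carried out with 200 nM protein at 25 °C for 1 h in PBS, 2% BSA, salmon testes DNA and 50 µM zinc acetate. The binding signal is per-feature fluorescence intensity, in arbitrary units, on an Axon 4000B scanner.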

Row | Sequence | binding signal
1 | GCCGCGCAAATCACCACGCCACGCCCCGCCCGCGCGCGTCCGGAGTCACCTAGTGCAG | 3890 fluorescence intensity (a.u.)
2 | GAATAGCAACCTGTGGGCAGACAATGATGAGGCCAAGAACCGGAGTCACCTAGTGCAG | 6250 fluorescence intensity (a.u.)
3 | CCGCGAGCGCACATCCTCATCCGGCGAGGTCCAGGAGGGGCGGAGTCACCTAGTGCAG | 3540 fluorescence intensity (a.u.)
4 | TCATCCTTCAAAACGGTACTTGTGTGGCACGTGTATGTCACGGAGTCACCTAGTGCAG | 6020 fluorescence intensity (a.u.)
5 | CATCACACCCACTTGTCCGCACACAAGAAGAGACCAGCTACGGAGTCACCTAGTGCAG | 50600 fluorescence intensity (a.u.)
6 | ATATACATCTACTCCTAAATTATTATTATTATTATTTTCACGGAGTCACCTAGTGCAG | 3520 fluorescence intensity (a.u.)
7 | TTGCGGCCGTCTCGCGTGGGATGCGTGTCGCCATTTTAATCGGAGTCACCTAGTGCAG | 3290 fluorescence intensity (a.u.)
8 | GATCTGCCACTATATTTTCTATTAATTTAGAATTTGATACCGGAGTCACCTAGTGCAG | 4330 fluorescence intensity (a.u.)
9 | TGCTCGCTACCTGACGTGATGCACAAAAGGCCCAGTTTGTCGGAGTCACCTAGTGCAG | 3880 fluorescence intensity (a.u.)
10 | CGTTGCTCGGGAACACGTTCCGCCACCGACGTCGCCGTCCCGGAGTCACCTAGTGCAG | 3310 fluorescence intensity (a.u.)
11 | CATCTAGACATCTAGTAGTATTGACGTGTAAGGAGCTGTACGGAGTCACCTAGTGCAG | 7550 fluorescence intensity (a.u.)
12 | GGCTTTGATGTTTGGTTTCTGATTCCTGAGCTGTACCGATCGGAGTCACCTAGTGCAG | 4280 fluorescence intensity (a.u.)
13 | TGGCTCCCTGTTCAGTCAAATCTCCTTCCAGATATGCACGCGGAGTCACCTAGTGCAG | 3200 fluorescence intensity (a.u.)
14 | ACAGATATCATATCAAAACACAGCAGAGATCGATAGATCTCGGAGTCACCTAGTGCAG | 3230 fluorescence intensity (a.u.)
15 | GCGGGAAGAGTAGAGTGCCACATCATCAATTTTGGCGAAACGGAGTCACCTAGTGCAG | 14400 fluorescence intensity (a.u.)
16 | TCCTCCTCCTCGTCGTGGTGCGACCCCGCGCCAAGCAATCCGGAGTCACCTAGTGCAG | 3190 fluorescence intensity (a.u.)
17 | GAAGAGGGGAGGGAGCTCCAAAAGGGCGAGAAAGTAAGCGCGGAGTCACCTAGTGCAG | 39400 fluorescence intensity (a.u.)
18 | ATTTGGAACTACTCACGGCCAACCCAACAGTCACAGTTGGCGGAGTCACCTAGTGCAG | 3350 fluorescence intensity (a.u.)
19 | GCTCCGAGCTCTCCATTCCCGCGACCCATTGACCCATCGGCGGAGTCACCTAGTGCAG | 7370 fluorescence intensity (a.u.)
20 | ATGATTTGCATACAGGCGACAACATTCATACTAATTGGAACGGAGTCACCTAGTGCAG | 3480 fluorescence intensity (a.u.)
21 | GTGTTGGGCCGATAATTTCCTGCACGGAATTTCGTCCCGTCGGAGTCACCTAGTGCAG | 5510 fluorescence intensity (a.u.)

Row | Sequence | binding signal
22 | CACCACACGTCACGCTTCCACCTCCACCTCCACCTCACTGCGGAGTCACCTAGTGCAG | 18200 fluorescence intensity (a.u.)
23 | CTGATCTGCTGATGCGAATGCGAGCAGTAATCAACAGCGTCGGAGTCACCTAGTGCAG | 3240 fluorescence intensity (a.u.)
24 | AACATTGAGCCACGTCATCAACAAAATATGGACCGTCCGACGGAGTCACCTAGTGCAG | 21700 fluorescence intensity (a.u.)
25 | CACCGCAGCTTCTCCAATCCGTCACTTTCCCCATCCCTCCCGGAGTCACCTAGTGCAG | 3240 fluorescence intensity (a.u.)
26 | GCATTCCCACCTTCCGTCGTCATCTTCACCACCGGCGGTGCGGAGTCACCTAGTGCAG | 3340 fluorescence intensity (a.u.)
27 | CACAAACTCGCATAACCGCCCCGCCGCGTGTCGTCTCCCCCGGAGTCACCTAGTGCAG | 5980 fluorescence intensity (a.u.)
28 | ACGCCCGATCTCTGCAATTCGATCGCTTGCATCTGCAAAGCGGAGTCACCTAGTGCAG | 3920 fluorescence intensity (a.u.)
29 | GAGGCAGTGAACCGGAATAGGCCACACTTGTCGCGATATTCGGAGTCACCTAGTGCAG | 3250 fluorescence intensity (a.u.)
30 | CTTGCAAACGCAACCAACAACCCATTCCCATGCAATATATCGGAGTCACCTAGTGCAG | 21900 fluorescence intensity (a.u.)
31 | CGTGACGGCGTGCCATCTACTACCTGAGAAGAAACACATACGGAGTCACCTAGTGCAG | 31800 fluorescence intensity (a.u.)
32 | CAGGGCCTACGTGCATGGGTGACTCACGCAGCCTTTCTGTCGGAGTCACCTAGTGCAG | 11500 fluorescence intensity (a.u.)
33 | GGTCCCCTGCGCGTCGCCACGTTGCCAACCTCCTCCAGGGCGGAGTCACCTAGTGCAG | 10200 fluorescence intensity (a.u.)
34 | GTATTGTGGGTTAGGGATGTCGATTATACTCGACGTAAAGCGGAGTCACCTAGTGCAG | 3830 fluorescence intensity (a.u.)
35 | ATCGGGAGAGATGGAAAATAGAGTAGTCCCTGACACGTGGCGGAGTCACCTAGTGCAG | 24300 fluorescence intensity (a.u.)
36 | GTCCAGATACTAAGGTGTATGGTATTATCGGAAAACCTGTCGGAGTCACCTAGTGCAG | 5550 fluorescence intensity (a.u.)
37 | GCTCGTAGTCTACTCCACCCCGCTTGTCGACGTGCGCTGGCGGAGTCACCTAGTGCAG | 3790 fluorescence intensity (a.u.)
38 | ACATACGAGAGATCCCATATGCTGTTTATTGCTGCTGCCACGGAGTCACCTAGTGCAG | 3430 fluorescence intensity (a.u.)
39 | ATGTTTATATCGTCTCAACTGACTAGGGAATTTGGAGATGCGGAGTCACCTAGTGCAG | 3750 fluorescence intensity (a.u.)
40 | TCTGCCAGGTGGTGGCCTCAATGATGGCGAGCCATGGCCACGGAGTCACCTAGTGCAG | 3720 fluorescence intensity (a.u.)
41 | CAAATCCACCCCTGGGCTCCGGCTGGATGACGTGCCAAGCCGGAGTCACCTAGTGCAG | 10500 fluorescence intensity (a.u.)
42 | TTACCAGAGTTACTCCGTTTTGCTTGTACAGTTTCCGGTTCGGAGTCACCTAGTGCAG | 3260 fluorescence intensity (a.u.)

Quoted from the listing.
binding signal, ACATACGAGAGATCCCATATGCTGTTTATTGCTGCTGCCACGGAGTCACCTAGTGCAG is entered as 3430 fluorescence intensity (a.u.)
binding signal, ATCGGGAGAGATGGAAAATAGAGTAGTCCCTGACACGTGGCGGAGTCACCTAGTGCAG is entered as 24300 fluorescence intensity (a.u.)
